No constants are given. Whether binding was seen depends on the method and setting. In cells and extracts the contact can be indirect. These calls come from enrichment with a bait or labelling near it, and not all partners need be listed.

By UniProt entry, the sequences of proteins in these tests, tags left out.
UniProt Q13485: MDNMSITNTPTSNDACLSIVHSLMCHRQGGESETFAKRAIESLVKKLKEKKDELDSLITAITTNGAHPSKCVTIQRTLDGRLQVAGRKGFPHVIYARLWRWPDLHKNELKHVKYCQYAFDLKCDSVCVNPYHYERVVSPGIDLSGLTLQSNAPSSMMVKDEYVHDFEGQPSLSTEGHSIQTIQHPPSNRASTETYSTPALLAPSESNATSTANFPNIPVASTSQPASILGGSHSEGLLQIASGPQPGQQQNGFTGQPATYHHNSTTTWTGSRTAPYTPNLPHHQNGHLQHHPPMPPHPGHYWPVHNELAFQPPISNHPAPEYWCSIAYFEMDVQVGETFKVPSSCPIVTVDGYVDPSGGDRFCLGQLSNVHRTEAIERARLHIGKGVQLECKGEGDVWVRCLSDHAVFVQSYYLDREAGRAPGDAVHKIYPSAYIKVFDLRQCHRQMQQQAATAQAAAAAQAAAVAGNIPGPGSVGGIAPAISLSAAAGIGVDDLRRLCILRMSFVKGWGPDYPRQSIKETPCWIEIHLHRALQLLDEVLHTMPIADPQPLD
UniProt Q13547: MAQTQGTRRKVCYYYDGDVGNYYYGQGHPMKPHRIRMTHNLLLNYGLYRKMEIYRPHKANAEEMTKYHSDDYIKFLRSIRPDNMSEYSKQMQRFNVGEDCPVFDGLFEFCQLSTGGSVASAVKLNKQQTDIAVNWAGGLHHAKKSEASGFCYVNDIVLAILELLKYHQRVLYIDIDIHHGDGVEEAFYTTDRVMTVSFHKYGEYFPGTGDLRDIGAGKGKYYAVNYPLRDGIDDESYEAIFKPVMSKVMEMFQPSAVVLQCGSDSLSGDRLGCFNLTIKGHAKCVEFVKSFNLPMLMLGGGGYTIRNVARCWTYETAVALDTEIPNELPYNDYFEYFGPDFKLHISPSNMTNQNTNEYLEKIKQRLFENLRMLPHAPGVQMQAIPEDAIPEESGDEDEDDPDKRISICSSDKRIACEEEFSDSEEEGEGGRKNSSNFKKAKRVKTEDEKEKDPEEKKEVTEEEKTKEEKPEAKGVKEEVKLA

The assay has as its target Smad4 (human (endogenous in IVD tissue of a patient)) (UniProt Q13485). In words: affinity purification with mass spectrometry; degenerative IVD tissue lysate (RIPA buffer) immunoprecipitated with anti-Smad4- and IgG-coupled protein A beads; SDS-PAGE, silver staining, bands digested with trypsin, MS.

Regarding “HDAC1 (histone deacetylase 1) (from UniProt Q13547 1-482)”, the binding result is “binds”.

For the origin of these results see publication PMC8241732.
